From paper PMC11545987
No constants are given. Whether binding was seen depends on the method and setting. Binding seen in cells or lysates may run through a third protein. Some entries that bind do so weakly or less than the wild type.

Chains of the proteins cited; added tags and fusions are not shown. Lines headed by an entry give the natural chain unless they say otherwise; changes in a name come on top.
UniProt Q9UI95: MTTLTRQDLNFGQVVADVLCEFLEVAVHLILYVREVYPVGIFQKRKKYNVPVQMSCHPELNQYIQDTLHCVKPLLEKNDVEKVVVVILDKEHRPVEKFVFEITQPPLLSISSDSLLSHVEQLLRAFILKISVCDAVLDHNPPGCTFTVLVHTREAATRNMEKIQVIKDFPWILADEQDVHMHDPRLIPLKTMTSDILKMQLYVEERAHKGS
UniProt Q9UM11: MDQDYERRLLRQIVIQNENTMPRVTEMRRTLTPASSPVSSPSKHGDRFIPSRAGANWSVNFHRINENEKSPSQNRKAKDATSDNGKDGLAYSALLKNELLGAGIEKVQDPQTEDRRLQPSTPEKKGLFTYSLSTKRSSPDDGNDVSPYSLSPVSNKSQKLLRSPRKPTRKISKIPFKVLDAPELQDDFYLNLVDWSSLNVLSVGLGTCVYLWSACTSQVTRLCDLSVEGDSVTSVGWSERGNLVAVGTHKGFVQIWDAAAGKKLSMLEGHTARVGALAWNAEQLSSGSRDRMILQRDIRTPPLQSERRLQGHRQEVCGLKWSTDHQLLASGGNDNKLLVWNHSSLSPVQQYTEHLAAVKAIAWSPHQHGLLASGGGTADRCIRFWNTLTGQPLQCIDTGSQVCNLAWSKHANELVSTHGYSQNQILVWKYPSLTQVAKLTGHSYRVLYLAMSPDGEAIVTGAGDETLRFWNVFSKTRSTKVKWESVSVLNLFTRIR

Columns and labels:
HA-MAD2L2 A135D = HA-MAD2L2 A135D (UniProt Q9UI95); assay: co-IP; HEK-293 cells co-transfected with the tagged plasmids; anti-HA IP from cleared lysate (50 mM Tris-HCl pH 8, 150 mM NaCl, 20 mM EGTA, 50 mM NaF, 1% Triton X-100), 4 °C, protein G-Sepharose; immunoblot
HA-MAD2L2 WT = HA-MAD2L2 WT (UniProt Q9UI95); assay: as above
myc-MAD2L2 WT = myc-MAD2L2 WT (UniProt Q9UI95); assay: co-IP; HEK-293 cells co-transfected with the tagged plasmids; anti-myc IP from cleared lysate (50 mM Tris-HCl pH 8, 150 mM NaCl, 20 mM EGTA, 50 mM NaF, 1% Triton X-100), 4 °C, protein G-Sepharose; immunoblot
myc-CDH1 = myc-CDH1 (UniProt Q9UM11); assay: as above
[1] = target: MAD2L2, endogenous (human (endogenous in U2OS)) (UniProt Q9UI95); assay: proximity ligation; NaveniFlex PLA on fixed U2OS WT cells transfected with a GFP vector or GFP-CDH1; foci per cell counted as MAD2L2 homodimers

| Substance | binding (HA-MAD2L2 WT) | binding (myc-MAD2L2 WT) | further results |
| --- | --- | --- | --- |
| YFP-CDH1 (from UniProt Q9UM11 1-496) | binds |  | binding (HA-MAD2L2 A135D): binds |
| YFP-MAD2L2 (from UniProt Q9UI95 1-211) |  | binds |  |
| HA-CDH1 RAIP (F48A) (from UniProt Q9UM11 1-496) |  | binds |  |
| myc-CDH1 (from UniProt Q9UM11 1-496) | binds |  | binding (HA-MAD2L2 A135D): binds |
| HA-CDH1 WT (from UniProt Q9UM11 1-496) |  | binds |  |
| HA-MAD2L2 WT (from UniProt Q9UI95 1-211) |  |  | binding (myc-CDH1): binds |
| MAD2L2, endogenous (from UniProt Q9UI95 1-211) |  |  | binding [1]: binds |
| HA-MAD2L2 2DD (K44A + R124A) (from UniProt Q9UI95 1-211) |  |  | binding (myc-CDH1): binds |
| GFP-CDH1 (from UniProt Q9UM11 1-496) |  |  | binding [1]: binds |
| mRFP-CDH1 (from UniProt Q9UM11 1-496) | binds |  |  |
